According to patent publication US20120283175A1, “ANTIBACTERIAL COMPOSITIONS” (Achaogen, Inc., priority 2009, published 2012):
Some of these results come from one statement about several compounds together.

Test system: P. aeruginosa (ATCC27853)
Details: with vancomycin
Text: The model was run essentially as described by Craig and others (see Gudmundsson et al., “Murine Thigh Infection Model,” Handbook of Animal Models of Infection, M. A. Sande and O. Zak, Eds.; London: Academic Press, 1999, pp 137-144). Briefly, mice were rendered neutropenic prior to infection with 2 doses of cyclophosphamide, and then infected intramuscularly in the thigh with inocula of 10^3-10^5 CFU of either K. pneumo. (ATCC43816) or P. aeruginosa (ATCC27853). Antibiotics or vehicle alone as a negative control were administered twice at 2 hrs and 14 hrs post-infection. The animals were kept neutropenic for the duration of the experiment in order to minimize the effect of white blood cells on the infection such that the microbiological readout measures the in vivo interaction of drugs and bacteria. At 24 hrs post-infection, thighs were harvested, homogenized, and plated to measure the number of CFUs surviving per thigh. Thighs from a subset of animals were also harvested 2 hrs post-infection to record the CFUs present just prior to the first antibiotic treatment (pre-treatment).
This table focuses on the sensitive part of the LpxCi-4 dose response curve (30 mg/kg) by examining the mean log CFU at 0 or 24 hours, as well as the log change in CFU at 24 hours relative to zero hours (“ΔLogCFU vs 24 hr”). […]

SMILES | reduction of static dose of the LpxC inhibitor
CC(C)(O)[C@H](NC(=O)c1ccc(C#CC#CC2CC2)cc1)C(=O)NO [LpxCi-6, (S)-4-(cyclopropylbuta-1,3-diynyl)-N-(3-hydroxy-1-(hydroxyamino)-3-methyl-1-oxobutan-2-yl)benzamide] | 1.8-2.4 fold
CC(C)(N)[C@H](NC(=O)c1ccc(C#CC#CC2CC2)cc1)C(=O)NO [LpxCi-4, (S)—N-(3-amino-1-(hydroxyamino)-3-methyl-1-oxobutan-2-yl)-4-(cyclopropylbuta-1,3-diynyl)benzamide] | 1.8-2.4 fold
